The list does not hold the whole screen: it gathers tests that were run many times, whatever their T/C, doses with no T/C, and many T/C values between a quarter and a half above the control. Further doses and runs are listed elsewhere. T/C is the treated group as % of the vehicle group. Some entries give survivors of the animals treated and no T/C: the source holds a T/C of zero for them, seemingly a mark for toxic or unscored doses. Some doses without a T/C left all or most animals alive at the check, yet need not have been tolerated: the source hardly ever lists a survival T/C far under the control, and the zero likely stands for such cases as well. Survivors were counted at the toxicity check, usually on the fifth day, unless a day is given; later deaths do not show. Schedules are NCI's codes, taken here to give the interval after Q, in days (D) or hours (H), and the number of doses after X. Some entries were tested several times; the values are given in rising order. For survival time, this PubChem deposit counts one and a half times the control or more as active, and values a quarter to a half above the control carry no call in these data; other NCI protocols may use other cut-offs. Some T/C values carry the count of animals alive at the toxicity check (mostly the fifth day); where none is given, no animal had died by that day.
Tested on: P388 leukemia ip, CD2F1 mice, survival T/C
Assay: NCI In Vivo Anticancer Drug Screen. Data for tumor model P388 Leukemia (intraperitoneal) in CD2F1 (CDF1) mice
Settings: T/C endpoint: median survival time, higher T/C = longer survival
[1] = dose: 100.0 mg/kg/injection, schedule: Q01DX005 (ip), vehicle: saline with Tween-80
[2] = dose: 200.0 mg/kg/injection, schedule: Q01DX005 (ip), vehicle: saline with Tween-80
[3] = dose: 200.0 mg/kg/injection, schedule: Q01DX005 (ip), vehicle: Klucel (hydroxypropylcellulose) (HPC)
[4] = dose: 6.25 mg/kg/injection, schedule: Q04DX003 (ip), vehicle: saline
[5] = dose: 12.5 mg/kg/injection, schedule: Q04DX003 (ip), vehicle: saline
[6] = dose: 400.0 mg/kg/injection, schedule: Q01DX005 (ip), vehicle: saline with Tween-80
[7] = dose: 100.0 mg/kg/injection, schedule: Q01DX009 (ip), vehicle: saline with Tween-80
[8] = dose: 240.0 mg/kg/injection, schedule: Q01DX005 (ip), vehicle: saline with Tween-80
[9] = dose: 100.0 mg/kg/injection, schedule: Q04DX003 (ip), vehicle: saline with Tween-80
[10] = dose: 400.0 mg/kg/injection, schedule: Q04DX003 (ip), vehicle: saline with Tween-80
[11] = dose: 50.0 mg/kg/injection, schedule: Q01DX009 (ip), vehicle: other
[12] = dose: 100.0 mg/kg/injection, schedule: Q01DX009 (ip), vehicle: other
[13] = dose: 100.0 mg/kg/injection, schedule: Q01DX009 (ip), vehicle: saline

For `NC1CC2c3ccccc3C1c1ccccc12` (stereo not drawn), the survivor count [1] was 3 of 6 and the survivor count [2] was 0 of 6.
In the case of `C=CC12CN(C)C3C4COC(CC41)C1(C(=O)Nc4ccccc41)C32` (stereo not drawn), the survivor count (dose: 120.0 mg/kg/injection, schedule: Q01DX005 (ip), vehicle: Klucel (hydroxypropylcellulose) (HPC)) is reported as 0 of 6 and the survivor count (dose: 240.0 mg/kg/injection, schedule: Q01DX005 (ip), vehicle: Klucel (hydroxypropylcellulose) (HPC)) is reported as 0 of 5.
In the case of `Cc1ccc(-c2cc(=O)c3cccc(CC(=O)O)c3o2)cc1`, the T/C (dose: 50.0 mg/kg/injection, schedule: Q01DX005 (ip), vehicle: Klucel (hydroxypropylcellulose) (HPC)) is reported as 130 % of control, the survivor count (dose: 100.0 mg/kg/injection, schedule: Q01DX005 (ip), vehicle: Klucel (hydroxypropylcellulose) (HPC)) is reported as 6 of 6 and the T/C [3] is reported as 138 % of control.
In the case of `COc1c(OC)c2oc(=O)c3cc4c(c5oc(=O)c(c1OC)c2c53)OCO4`, the survivor count (dose: 14.0 mg/kg/injection, schedule: Q01DX005 (ip), vehicle: other) is reported as 5 of 6.
In the case of `C[CH2][Sn]1([CH2]C)[O]C2C(O)OC(CO)C(O)C2[O]1` (stereo not drawn), the T/C [4] is reported as 127 % of control, the survivor count [4] is reported as 0 of 6 and the T/C [5] is reported as 140 % of control. The survivor count [5] was 0 of 6, the survivor count (dose: 25.0 mg/kg/injection, schedule: Q04DX003 (ip), vehicle: saline) was 0 of 6 and the survivor count (dose: 100.0 mg/kg/injection, schedule: Q04DX003 (ip), vehicle: saline) was 0 of 6. The survivor count (dose: 200.0 mg/kg/injection, schedule: Q04DX003 (ip), vehicle: saline) was 0 of 6 and the survivor count (dose: 400.0 mg/kg/injection, schedule: Q04DX003 (ip), vehicle: saline) was 0 of 6.
For `COc1cccc2c1OC(=O)NC2O` (stereo not drawn), the survivor count [6] was 2 of 5.
`C[Si](C)(C)ONC(=O)c1ccccc1` was tested, and the T/C (dose: 400.0 mg/kg/injection, schedule: Q01DX009 (ip), vehicle: distilled water + Tween-80) was 132 % of control [4 of 5 alive].
`CC(=O)Oc1ccc(/C=N/NC(N)=S)nc1` was tested, and the T/C (dose: 1.78 mg/kg/injection, schedule: Q01DX009 (ip), vehicle: saline with Tween-80) was 141 % of control, the T/C (dose: 2.66 mg/kg/injection, schedule: Q01DX009 (ip), vehicle: saline with Tween-80) was 141 % of control and the T/C (dose: 6.0 mg/kg/injection, schedule: Q01DX009 (ip), vehicle: saline with Tween-80) was 142 % of control. The T/C (dose: 9.4 mg/kg/injection, schedule: Q01DX009 (ip), vehicle: saline with Tween-80) was 139 % of control and the T/C (dose: 18.8 mg/kg/injection, schedule: Q01DX009 (ip), vehicle: saline with Tween-80) was 147 % of control.
For `CC(C)C1=C(O)C2=C(C(=O)C1=O)C1(C)CCCC(C)(C)C1CC2O` (stereo not drawn), the survivor count [7] was 6 of 6.
`C/C(O)=C(/N=Nc1ccccc1)C(=O)O` was tested, and the survivor count [8] was 1 of 6.
With `Cc1cn(Cc2ccc(Cl)cc2Cl)c(C)n1` the survivor count (dose: 120.0 mg/kg/injection, schedule: Q01DX005 (ip), vehicle: saline with Tween-80) was 0 of 6 and the survivor count [8] was 0 of 6.
For `C1CCC(C2CCCC[N-]2)[N-]C1.O.O.[Pd+2]` (stereo not drawn), the T/C (dose: 50.0 mg/kg/injection, schedule: Q04DX003 (ip), vehicle: saline with Tween-80) was 125 % of control, the survivor count [9] was 2 of 6 and the survivor count (dose: 200.0 mg/kg/injection, schedule: Q04DX003 (ip), vehicle: saline with Tween-80) was 1 of 6. For the same compound, the survivor count [10] was 0 of 6.
In the case of `CC(=O)C1=C(O)C(CC(C)C)NC1=O` (stereo not drawn), the survivor count [3] is reported as 3 of 6.
With `C#Cc1cccc(N=Cc2ccc(C=Nc3cccc(C#C)c3)cc2)c1` the survivor count (dose: 50.0 mg/kg/injection, schedule: Q01DX009 (ip), vehicle: saline with Tween-80) was 6 of 6 and the survivor count [7] was 6 of 6.
With `Cc1cc(NCCCCCCNc2cc(C)nc3cc(N)ccc23)c2ccc(N)cc2n1` the T/C (dose: 3.13 mg/kg/injection, schedule: Q01DX009 (ip), vehicle: other) was 133 % of control, the T/C (dose: 6.25 mg/kg/injection, schedule: Q01DX009 (ip), vehicle: other) was 132 and 137 % of control and the T/C (dose: 12.5 mg/kg/injection, schedule: Q01DX009 (ip), vehicle: other) was 132 and 147 % of control. For the same compound, the survivor count [11] was 1 of 6 and 2 of 6 and the survivor count [12] was 0 of 6.
In the case of `CCCCN(C)N=Nc1ccccc1C(N)=O`, the T/C [7] is reported as 145 % of control and the T/C [10] is reported as 131 % of control.
With `Cn1c(=O)c2[nH]c(Cc3ccc4c(c3)OCO4)nc2n(C)c1=O` the survivor count (dose: 400.0 mg/kg/injection, schedule: Q01DX009 (ip), vehicle: Klucel (hydroxypropylcellulose) (HPC)) was 2 of 6.
For `CCNC(=O)OCc1c(-c2ccccc2)nc2sccn12`, the survivor count (dose: 100.0 mg/kg/injection, schedule: Q01DX001 (ip), vehicle: Klucel (hydroxypropylcellulose) (HPC)) was 2 of 6, the survivor count (dose: 200.0 mg/kg/injection, schedule: Q01DX001 (ip), vehicle: Klucel (hydroxypropylcellulose) (HPC)) was 1 of 6 and the survivor count (dose: 400.0 mg/kg/injection, schedule: Q01DX001 (ip), vehicle: Klucel (hydroxypropylcellulose) (HPC)) was 0 of 6.
In the case of `O=NN(CCCl)C(=O)NC1CC2CCC1C2` (stereo not drawn), the survivor count [9] is reported as 6 of 6.
In the case of `O=C1NCC(Br)C(=O)N1` (stereo not drawn), the T/C [11] is reported as 127 % of control, the T/C [12] is reported as 129 % of control and the T/C (dose: 200.0 mg/kg/injection, schedule: Q01DX009 (ip), vehicle: other) is reported as 137 % of control. For the same compound, the T/C (dose: 200.0 mg/kg/injection, schedule: Q01DX009 (ip), vehicle: saline + Tween-80 + alcohol) was 128 % of control and the survivor count (dose: 400.0 mg/kg/injection, schedule: Q01DX009 (ip), vehicle: saline + Tween-80 + alcohol) was 5 of 6.
`CCCCC(NC(=O)CC)C(=O)O` (stereo not drawn) was tested, and the survivor count (dose: 50.0 mg/kg/injection, schedule: Q01DX009 (ip), vehicle: saline) was 6 of 6 and the survivor count [13] was 6 of 6.
With `COc1cc2c(cc1O)CC1c3c(cc(OC)c(O)c3C2)CCN1C` (stereo not drawn) the survivor count (dose: 100.0 mg/kg/injection, schedule: Q01DX001 (ip), vehicle: saline with Tween-80) was 2 of 6, the survivor count (dose: 200.0 mg/kg/injection, schedule: Q01DX001 (ip), vehicle: saline with Tween-80) was 0 of 6 and 3 of 6 and the survivor count (dose: 400.0 mg/kg/injection, schedule: Q01DX001 (ip), vehicle: saline with Tween-80) was 0 of 6.
In the case of `O=C([O-])CC(=O)[O-].[Cu+2].c1ccc(-c2ccccn2)nc1`, the survivor count (dose: 50.0 mg/kg/injection, schedule: Q01DX005 (ip), vehicle: saline with Tween-80) is reported as 0 of 6, the survivor count [1] is reported as 0 of 6 and the survivor count [2] is reported as 0 of 6.
In the case of `C=C1C(=O)C2CCN1CC2`, the T/C [2] is reported as 125 % of control and the survivor count [6] is reported as 1 of 6 and 5 of 6.
In the case of `CSCCC(NC(=O)CN(C)C(=O)OCc1ccccc1)C(=O)O` (stereo not drawn), the survivor count [2] is reported as 0 of 6.
`C=CCN(C#N)CC=C` was tested, and the survivor count [13] was 2 of 6 and the survivor count (dose: 200.0 mg/kg/injection, schedule: Q01DX009 (ip), vehicle: saline) was 0 of 6.
With `COc1cc2c(c(OC)c1OC)-c1ccc(SC)c(=O)cc1[C@@H](NC(=O)Oc1ccccc1)CC2` the T/C (dose: 1.25 mg/kg/injection, schedule: Q01DX009 (ip), vehicle: Klucel (hydroxypropylcellulose) (HPC)) was 125 % of control, the T/C (dose: 2.5 mg/kg/injection, schedule: Q01DX009 (ip), vehicle: Klucel (hydroxypropylcellulose) (HPC)) was 130 and 141 % of control and the T/C (dose: 5.0 mg/kg/injection, schedule: Q01DX009 (ip), vehicle: Klucel (hydroxypropylcellulose) (HPC)) was 146 % of control. For the same compound, the survivor count (dose: 20.0 mg/kg/injection, schedule: Q01DX009 (ip), vehicle: Klucel (hydroxypropylcellulose) (HPC)) was 5 of 6.

— PubChem BioAssay AID330 (DTP/NCI, 2004)
